# Results taken from the supplement of paper PMC8728848.
# This is one part of the list.
# B1: Langerin K299A/K313A (Homo sapiens), Q9UJ71 (protein)
# chain: STLNAQIPELKSDLEKASALNTKIRALQGSLENMSKLLKRQNDILQVVSQGWKYFKGNFYYFSLIPKTWYSAEQFCVSRNSHLTSVTSESEQEFLYKTAGGLIYWIGLTKAGMEGDWSWVDDTPFNKVQSARFWIPGEPNNAGNNEHCGNIAAPSLQAWNDAPCDATFLFICKRPYVPSEP
# Columns and labels:
# Assay in all cases: glycan array binding signal (z-score within array); higher = stronger binding
# Settings in all cases: glycan notation: IUPAC condensed, linker removed
# [1] = molecular target: Neu5Ac(a2-6)GlcNAc(b1-4)GlcNAc(b1-4)GlcNAc
# How it was run: (§1)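 Arrays were curated from the Consortium for Functional Glycomics database, 3228 in total, and kept only where the protein sequence was available. Binding is expressed as a within-array Z-score. This score was averaged across arrays of the same protein sequence at different concentrations or buffers and across linkers, and negative values can be read as non-binding.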
# Neu5Ac(a2-8)Neu5Ac = molecular target: Neu5Ac(a2-8)Neu5Ac
# How it was run: as §1
# [2] = molecular target: Neu5Ac(a2-8)Neu5Ac(a2-3)Gal(b1-3)GalNAc(b1-4)[Neu5Ac(a2-3)]Gal(b1-4)Glc
# How it was run: as §1
# [3] = molecular target: Neu5Ac(a2-8)Neu5Ac(a2-3)Gal(b1-3)GalNAc(b1-4)[Neu5Ac(a2-8)Neu5Ac(a2-3)]Gal(b1-4)Glc
# How it was run: as §1
# [4] = molecular target: Neu5Ac(a2-8)Neu5Ac(a2-3)Gal(b1-4)Glc
# How it was run: as §1
# [5] = molecular target: Neu5Ac(a2-8)Neu5Ac(a2-3)Gal(b1-4)GlcNAc
# How it was run: as §1
# [6] = molecular target: Neu5Ac(a2-8)Neu5Ac(a2-3)[Gal(b1-3)GalNAc(b1-4)]Gal(b1-4)Glc
# How it was run: as §1
# [7] = molecular target: Neu5Ac(a2-8)Neu5Ac(a2-3)[GalNAc(b1-4)]Gal(b1-4)Glc
# How it was run: as §1
# [8] = molecular target: Neu5Ac(a2-8)Neu5Ac(a2-8)Neu5Ac
# How it was run: as §1
# [9] = molecular target: Neu5Ac(a2-8)Neu5Ac(a2-8)Neu5Ac(a2-3)Gal(b1-4)Glc
# How it was run: as §1
# [10] = molecular target: Neu5Ac(a2-8)Neu5Ac(a2-8)Neu5Ac(a2-3)[Gal(b1-3)GalNAc(b1-4)]Gal(b1-4)Glc
# How it was run: as §1
# [11] = molecular target: Neu5Ac(a2-8)Neu5Ac(a2-8)Neu5Ac(a2-3)[GalNAc(b1-4)]Gal(b1-4)Glc
# How it was run: as §1
# [12] = molecular target: Neu5Ac(a2-8)Neu5Ac(a2-8)Neu5Ac(a2-8)Neu5Ac(a2-3)[GalNAc(b1-4)]Gal(b1-4)Glc
# How it was run: as §1
# [13] = molecular target: Neu5Ac(a2-8)Neu5Gc(a2-3)Gal(b1-4)GlcNAc
# How it was run: as §1
# [14] = molecular target: Neu5Ac(b2-6)Gal(b1-4)GlcNAc
# How it was run: as §1
# Neu5Ac(b2-6)GalNAc = molecular target: Neu5Ac(b2-6)GalNAc
# How it was run: as §1
# [15] = molecular target: Neu5Ac9Ac(a2-3)Gal(b1-3)GlcNAc
# How it was run: as §1
# [16] = molecular target: Neu5Ac9Ac(a2-3)Gal(b1-4)GlcNAc
# How it was run: as §1
# [17] = molecular target: Neu5Ac9Ac(a2-6)Gal(b1-4)GlcNAc
# How it was run: as §1
# [18] = molecular target: Neu5Gc(a2-3)Gal(b1-3)GlcNAc
# How it was run: as §1
# [19] = molecular target: Neu5Gc(a2-3)Gal(b1-3)[Fuc(a1-4)]GlcNAc
# How it was run: as §1
# Neu5Gc(a2-3)Gal(b1-4)Glc = molecular target: Neu5Gc(a2-3)Gal(b1-4)Glc
# How it was run: as §1
# [20] = molecular target: Neu5Gc(a2-3)Gal(b1-4)GlcNAc
# How it was run: as §1
# [21] = molecular target: Neu5Gc(a2-3)Gal(b1-4)GlcNAc(b1-3)Gal(b1-4)GlcNAc(b1-2)Man(a1-3)[Neu5Gc(a2-3)Gal(b1-4)GlcNAc(b1-3)Gal(b1-4)GlcNAc(b1-2)Man(a1-6)]Man(b1-4)GlcNAc(b1-4)GlcNAc
# How it was run: as §1
# [22] = molecular target: Neu5Gc(a2-3)Gal(b1-4)[Fuc(a1-3)]GlcNAc
# How it was run: as §1
# [23] = molecular target: Neu5Gc(a2-6)Gal(b1-4)GlcNAc
# How it was run: as §1
# Neu5Gc(a2-6)GalNAc = molecular target: Neu5Gc(a2-6)GalNAc
# How it was run: as §1
# [24] = molecular target: Neu5Gc(a2-8)Neu5Ac(a2-3)Gal(b1-4)GlcNAc
# How it was run: as §1
# [25] = molecular target: Neu5Gc(a2-8)Neu5Gc(a2-3)Gal(b1-4)GlcNAc
# How it was run: as §1
# [26] = molecular target: Neu5Gc(a2-8)Neu5Gc(a2-3)Gal(b1-4)GlcNAc(b1-3)Gal(b1-4)GlcNAc
# How it was run: as §1
# [27] = molecular target: Neu5Gc(a2-8)Neu5Gc(a2-6)Gal(b1-4)GlcNAc
# How it was run: as §1
# [28] = molecular target: Neu5Gc(b2-6)Gal(b1-4)GlcNAc
# How it was run: as §1
binder,measurement,setting,value
B1,glycan array binding signal (z-score),[1],-0.318
same,glycan array binding signal (z-score),Neu5Ac(a2-8)Neu5Ac,-0.543
same,glycan array binding signal (z-score),[2],0.043
same,glycan array binding signal (z-score),[3],-0.256
same,glycan array binding signal (z-score),[4],-0.708
same,glycan array binding signal (z-score),[5],-1.24
same,glycan array binding signal (z-score),[6],0.095
same,glycan array binding signal (z-score),[7],-0.957
same,glycan array binding signal (z-score),[8],-0.55
same,glycan array binding signal (z-score),[9],-0.346
same,glycan array binding signal (z-score),[10],1.26
same,glycan array binding signal (z-score),[11],-0.629
same,glycan array binding signal (z-score),[12],-0.964
same,glycan array binding signal (z-score),[13],-1.07
same,glycan array binding signal (z-score),[14],-0.699
same,glycan array binding signal (z-score),Neu5Ac(b2-6)GalNAc,-0.61
same,glycan array binding signal (z-score),[15],-0.42
same,glycan array binding signal (z-score),[16],-0.583
same,glycan array binding signal (z-score),[17],-0.871
same,glycan array binding signal (z-score),[18],-0.452
same,glycan array binding signal (z-score),[19],-0.236
same,glycan array binding signal (z-score),Neu5Gc(a2-3)Gal(b1-4)Glc,-0.569
same,glycan array binding signal (z-score),[20],-0.25
same,glycan array binding signal (z-score),[21],0.164
same,glycan array binding signal (z-score),[22],0.037
same,glycan array binding signal (z-score),[23],-0.32
same,glycan array binding signal (z-score),Neu5Gc(a2-6)GalNAc,-0.103
same,glycan array binding signal (z-score),[24],-0.057
same,glycan array binding signal (z-score),[25],0.736
same,glycan array binding signal (z-score),[26],0.186
same,glycan array binding signal (z-score),[27],-1.17
same,glycan array binding signal (z-score),[28],-1.08

# A different layout for part of the listing above.
binder	measurement	setting	value
B1	glycan array binding signal (z-score)	Neu5Ac(a2-8)Neu5Ac	-0.543
same	glycan array binding signal (z-score)	[2]	0.043
